{"sequences": {"note": "Sequences of proteins named here, by UniProt entry; tags and fusion partners are left off. A change or cut given only in a name is not applied to a line headed by its entry.", "UniProt P11802": "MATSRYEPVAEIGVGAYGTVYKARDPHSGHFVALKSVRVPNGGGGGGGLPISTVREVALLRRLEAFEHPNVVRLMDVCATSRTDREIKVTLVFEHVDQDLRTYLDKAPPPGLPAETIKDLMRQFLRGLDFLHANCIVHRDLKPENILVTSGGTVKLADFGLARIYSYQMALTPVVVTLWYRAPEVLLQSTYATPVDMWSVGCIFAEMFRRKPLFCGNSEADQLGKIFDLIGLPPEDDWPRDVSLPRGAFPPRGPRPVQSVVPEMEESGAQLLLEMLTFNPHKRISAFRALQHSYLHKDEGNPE", "UniProt P24385": "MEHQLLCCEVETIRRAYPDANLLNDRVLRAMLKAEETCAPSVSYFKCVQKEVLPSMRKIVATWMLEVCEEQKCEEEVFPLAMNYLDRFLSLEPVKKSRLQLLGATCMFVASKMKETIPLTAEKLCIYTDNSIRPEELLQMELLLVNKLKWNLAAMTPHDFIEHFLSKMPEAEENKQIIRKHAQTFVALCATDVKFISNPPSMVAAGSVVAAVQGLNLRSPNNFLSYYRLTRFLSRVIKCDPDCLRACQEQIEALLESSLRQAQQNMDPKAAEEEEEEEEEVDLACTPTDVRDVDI"}, "source": "patent EP1033402A1", "biological_target": "CDK4 (UniProt P11802)", "assay": "lysate of C33A cells transfected with p16BP1 vector; immunoprecipitation with Cyclin D1 antibody, Western blot with CDK4 antibody (Santa Cruz H303)", "note": "These are yes or no findings as the source states them, for the method shown. Some binding calls cover weakened binding; strength is not graded here."}
{"substance": "Cyclin D1 (endogenous, C33A cells) (from UniProt P24385 1-295)", "values": [{"measurement": "binding", "result": "binds"}]}
